Patent publication US20110097274A1, “Carbon-11 and fluorine-18 labeled radioligands for positron emission tomography (PET) imaging for the brain serotonin transporters” (priority 2002, published 2011)

System: SERT
Test: Baboon PET imaging: brain uptake, kinetic analysis and SERT parameters
Assay type: in vivo
Details: for Reproducibility of V3″ measurement (test/retest) Cingulate Cortex / Reproducibility of V3″ measurement (test/retest) Hippocampus / Reproducibility of V3″ measurement (test/retest) Midbrain / Reproducibility of V3″ measurement (test/retest) Occipital Cortex / Reproducibility of V3″ measurement (test/retest) Striatum / Reproducibility of V3″ measurement (test/retest) Temporal Cortex / Reproducibility of V3″ measurement (test/retest) Thalamus: absolute test−retest difference / average, mean ± SD of two test/retest pairs; for Reproducibility of V3″ measurement (test/retest) Average by tracer: average of all regions; for Minimal scanning time to reach time-independent measurement for VT, Cerebellum / Minimal scanning time to reach time-independent measurement for VT, Cingulate Cortex / Minimal scanning time to reach time-independent measurement for VT, Hippocampus / Minimal scanning time to reach time-independent measurement for VT, Midbrain / Minimal scanning time to reach time-independent measurement for VT, Occipital Cortex / Minimal scanning time to reach time-independent measurement for VT, Striatum / Minimal scanning time to reach time-independent measurement for VT, Temporal Cortex / Minimal scanning time to reach time-independent measurement for VT, Thalamus / Minimal scanning time to reach time-independent measurement for VT, Average by tracer: baboons; for Minimal scanning time to reach time-independent measurement for VT, Cerebellum / Minimal scanning time to reach time-independent measurement for VT, Cingulate Cortex / Minimal scanning time to reach time-independent measurement for VT, Hippocampus / Minimal scanning time to reach time-independent measurement for VT, Midbrain / Minimal scanning time to reach time-independent measurement for VT, Occipital Cortex / Minimal scanning time to reach time-independent measurement for VT, Striatum / Minimal scanning time to reach time-independent measurement for VT, Temporal Cortex / Minimal scanning time to reach time-independent measurement for VT, Thalamus: from analysis of four experiments; for Minimal scanning time to reach time-independent measurement for VT, Average by tracer: mean of all regions
Procedure: PET imaging protocol: PET experiments (n=20) were performed at Columbia University. Two adult male baboons (baboon A and B) were studied twice with each of the 5 radioligands (4 experiments per radioligand). All experiments took place within a 9-month period. Baboons A and B were 31 kg and 21 kg in weight at the beginning of the experimental period and 28 and 22 kg at the end, respectively. Test and retest experiments with the same radioligand were obtained on different days, with an average interval of 117±53 days.
Experiments were performed according to protocols approved by the Columbia-Presbyterian Medical Center Institutional Animal Care and Use Committee. Fasted animals were immobilized with ketamine (10 mg/kg i.m.), and anesthetized with 1.8% isoflurane via an endotracheal tube. Vital signs were monitored every 10 minutes and the temperature was kept constant at 37° C. with heated water blankets. An i.v. perfusion line was used for hydration and injection of radioligands and nonradioactive drugs. A catheter was inserted in a femoral artery for arterial blood sampling. Head was positioned at the center of the field of view as defined by imbedded laser lines. PET imaging was performed with the ECAT EXACT HR+PET scanner (Siemens/CTI, Knoxville, Tenn.). In 3D mode, this camera provides an in-plane resolution of 4.3 mm, 4.5 mm, 5.4 mm and 8.0 mm full width at half maximum (FWHM) at a distance of 0, 1, 10 and 20 cm from the center of the field of view, respectively (Brix et al., 1997). A 15 minute transmission scan was obtained prior to radioligand injection for attenuation correction. Activity was injected i.v. over 30 seconds. […] Emission data was collected in the 3D mode for 91 minutes as 21 successive frames of increasing duration (6*10 seconds, 2*1 minutes, 4*2 minutes, 2*5 minutes, and 7*10 minutes).
Image analysis: A Magnetic Resonance Image (MRI) of each baboon's brain was obtained for the purpose of identifying the regions of interest (ROI) (T1-weighted axial MRI sequence, acquired parallel to the anterior-posterior commissure, TR 34 msec, TE 5 msec, flip angle of 45 degrees, slice thickness is 1.5 mm, zero gap, matrix 1.5 mm×1 mm×1 mm voxels). The following regions were drawn on the MR images: cerebellum, midbrain, thalamus, striatum, hippocampus, temporal cortex, cingulate cortex and occipital cortex.
PET emission data were attenuation-corrected using the transmission scan, and frames were reconstructed using a Shepp filter (cutoff 0.5 cycles/projection rays). Reconstructed image files were then processed using the image analysis software MEDx (Sensor Systems, Inc., Sterling, Va.). An image was created by summing all the frames, and this summed image was used to define the registration parameters with the MR image, using between-modality automated image registration (AIR) algorithm (Woods et al., 1993). Registration parameters were then applied to the individual frames for registration to the MR data set. Regional boundaries were transferred to the individual registered PET frames, and time-activity curves were measured and decay-corrected. Right and left regions were averaged. For a given animal, the same regions were used for all radioligands.
Brain uptake: Total brain uptake was expressed as percentage of the injected dose per gram of tissue (% ID g^−1) in a region encompassing the entire brain. Regional peak time was defined as the mid-time of the frame associated with the highest activity value. To estimate the degree of wash-out from the brain captured during the scan interval (91 minutes), the decrease in activity from the peak frame to the last frame was calculated and expressed in percentage of the peak activity.
Kinetic analysis: Regional total distribution volumes (VT, mL g^−1) were derived with kinetic analysis of the regional time-activity curves, using the arterial plasma concentrations as input function. […]

SMILES	Reproducibility of V3″ measurement (test/retest) Cingulate Cortex [%]	Reproducibility of V3″ measurement (test/retest) Hippocampus [%]	Reproducibility of V3″ measurement (test/retest) Midbrain [%]	Reproducibility of V3″ measurement (test/retest) Occipital Cortex [%]	Reproducibility of V3″ measurement (test/retest) Striatum [%]	Reproducibility of V3″ measurement (test/retest) Temporal Cortex [%]	Reproducibility of V3″ measurement (test/retest) Thalamus [%]	Reproducibility of V3″ measurement (test/retest) Average by tracer [%]	Minimal scanning time to reach time-independent measurement for VT, Cerebellum [min]	Minimal scanning time to reach time-independent measurement for VT, Cingulate Cortex [min]	Minimal scanning time to reach time-independent measurement for VT, Hippocampus [min]	Minimal scanning time to reach time-independent measurement for VT, Midbrain [min]	Minimal scanning time to reach time-independent measurement for VT, Occipital Cortex [min]	Minimal scanning time to reach time-independent measurement for VT, Striatum [min]	Minimal scanning time to reach time-independent measurement for VT, Temporal Cortex [min]	Minimal scanning time to reach time-independent measurement for VT, Thalamus [min]	Minimal scanning time to reach time-independent measurement for VT, Average by tracer
CN(C)Cc1ccccc1Sc1ccc(I)cc1N [[^11C]ADAM]	28 ± 19	20 ± 3	28 ± 4	63 ± 10	15 ± 7	32 ± 25	21 ± 5	30 ± 16	40	30	50	70	40	40	30	50	44 ± 13 min
CN([11CH3])Cc1ccccc1Sc1ccc(CF)cc1N [[^11C]AFM, [^11C]2-[2-(Dimethylaminomethyl)phenylthio]-5-fluoromethylphenylamine]	14 ± 4	9 ± 5	10 ± 11	9 ± 5	5 ± 0	11 ± 10	3 ± 3	9 ± 4	30	50	80	70	60	70	70	70	62 ± 16 min and 63 ± 16 min
CN(C)Cc1ccccc1Sc1ccc(Br)cc1N [[^11C]DAPA]	9 ± 1	8 ± 6	7 ± 6	7 ± 6	7 ± 9	10 ± 7	12 ± 8	9 ± 2	60	60	80	80	60	70	60	70	68 ± 9 min
CN(C)Cc1ccccc1Sc1ccc(C#N)cc1N [[^11C]DASB]	14 ± 15	22 ± 12	15 ± 4	49 ± 43	13 ± 12	10 ± 14	15 ± 1	20 ± 13	30	30	30	60	40	30	30	40	36 ± 11 min
[11CH3]Sc1ccc([C@H]2CN3CCC[C@H]3c3ccccc32)cc1 [[^11C]McN 5652]	10 ± 13	28 ± 8	31 ± 11	35 ± 1	30 ± 28	25 ± 19	25 ± 15	26 ± 8	60	60	70	70	60	60	70	60	62 ± 5 min and 64 ± 5 min

Several values for one entry are separate records, joined by “and”; a condition that tells them apart may be missing. Equal entries are not always repeated.
